Results are given in words; binding and its absence hold for the method and conditions named. Binding seen in cells or lysates may run through a third protein. Some results given as binding are weak or reduced against the parent protein; the word gives no strength.

Sequences of proteins named here, by UniProt entry; tags and fusion partners are left off. Residues count along the entry.
UniProt P63165, residues 1-97: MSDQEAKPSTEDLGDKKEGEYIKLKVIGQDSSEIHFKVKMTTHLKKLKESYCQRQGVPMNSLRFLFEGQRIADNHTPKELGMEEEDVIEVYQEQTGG
UniProt Q00987: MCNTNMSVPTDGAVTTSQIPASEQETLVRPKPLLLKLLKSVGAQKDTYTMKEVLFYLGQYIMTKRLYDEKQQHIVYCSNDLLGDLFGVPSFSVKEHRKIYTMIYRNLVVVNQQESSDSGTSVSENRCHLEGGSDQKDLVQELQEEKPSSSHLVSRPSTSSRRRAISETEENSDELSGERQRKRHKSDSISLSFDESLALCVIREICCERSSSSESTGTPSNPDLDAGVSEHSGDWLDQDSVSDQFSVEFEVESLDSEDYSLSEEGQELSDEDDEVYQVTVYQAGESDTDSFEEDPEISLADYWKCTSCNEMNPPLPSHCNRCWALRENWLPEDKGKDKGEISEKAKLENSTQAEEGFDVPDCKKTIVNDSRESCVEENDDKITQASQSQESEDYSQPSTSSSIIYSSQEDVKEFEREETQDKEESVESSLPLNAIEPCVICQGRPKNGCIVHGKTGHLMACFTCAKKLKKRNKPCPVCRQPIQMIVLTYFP

The record followed here is doi:10.1101/789222.

Test [1] has as its target T1, Period2 (PER2), endogenous (human (endogenous in U2OS)) (UniProt O15055).
T1 sequence: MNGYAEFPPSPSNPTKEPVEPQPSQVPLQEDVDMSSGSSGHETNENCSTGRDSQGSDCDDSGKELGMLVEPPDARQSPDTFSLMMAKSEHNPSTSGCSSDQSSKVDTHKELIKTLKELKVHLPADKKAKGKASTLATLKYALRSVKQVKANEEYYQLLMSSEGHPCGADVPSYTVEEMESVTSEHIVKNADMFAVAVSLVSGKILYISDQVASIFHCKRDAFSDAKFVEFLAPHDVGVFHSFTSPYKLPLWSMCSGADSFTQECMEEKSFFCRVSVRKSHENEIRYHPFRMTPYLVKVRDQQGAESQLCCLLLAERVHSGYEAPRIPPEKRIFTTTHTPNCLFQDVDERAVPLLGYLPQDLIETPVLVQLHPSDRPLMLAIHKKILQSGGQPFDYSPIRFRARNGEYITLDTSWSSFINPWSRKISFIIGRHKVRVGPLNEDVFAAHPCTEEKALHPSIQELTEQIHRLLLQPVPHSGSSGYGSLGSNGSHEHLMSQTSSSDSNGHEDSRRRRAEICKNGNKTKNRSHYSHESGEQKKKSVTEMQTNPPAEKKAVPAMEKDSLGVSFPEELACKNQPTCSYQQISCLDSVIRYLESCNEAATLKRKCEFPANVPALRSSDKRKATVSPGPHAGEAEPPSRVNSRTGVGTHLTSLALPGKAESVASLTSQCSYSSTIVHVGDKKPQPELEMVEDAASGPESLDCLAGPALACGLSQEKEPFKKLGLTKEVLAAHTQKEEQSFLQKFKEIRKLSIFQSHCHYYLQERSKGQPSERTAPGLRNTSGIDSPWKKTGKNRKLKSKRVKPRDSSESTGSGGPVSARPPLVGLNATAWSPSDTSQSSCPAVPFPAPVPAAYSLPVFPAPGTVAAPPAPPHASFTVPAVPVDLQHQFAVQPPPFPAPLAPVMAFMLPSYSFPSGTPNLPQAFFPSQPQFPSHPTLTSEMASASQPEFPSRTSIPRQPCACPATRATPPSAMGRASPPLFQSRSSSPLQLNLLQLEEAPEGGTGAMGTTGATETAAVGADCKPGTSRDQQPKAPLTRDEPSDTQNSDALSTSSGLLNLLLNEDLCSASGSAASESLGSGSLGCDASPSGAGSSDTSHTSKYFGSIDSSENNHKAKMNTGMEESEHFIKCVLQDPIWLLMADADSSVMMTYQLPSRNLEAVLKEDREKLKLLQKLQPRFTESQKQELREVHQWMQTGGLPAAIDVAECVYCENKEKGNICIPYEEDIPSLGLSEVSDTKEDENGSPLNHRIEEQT
Put plainly: proximity ligation.

For test [2], the target named is T1, Period2 (PER2), endogenous (human (endogenous in U2OS)). Put plainly: co-IP.

Consider “SUMO1, endogenous (from UniProt P63165 1-97)”, for which the binding entry in test [1] is reported as “binds”.

In the case of “MDM2, endogenous (from UniProt Q00987 1-491)”, in test [2], the binding entry was “binds”.
